B1: #6-55: chicken-mouse chimeric anti-FSTL1 antibody clone; variable regions SEQ ID NO: 783 (light), 785 (heavy) (antibody, V domains shown)
VH: AVTLDESGGGLQTPGGALSLVCKGSGFTFTSVTMQWVRQAPGKGLEWVASVCSGSSTYYAPAVKGRATISRDNGQSTVRLQLSNLRPEDTGTYYCAKIAGRARWSCTSAAYNIDAWGHGTEVIVSS
VL: ASTQPSSVSAIPGETVKITCSGGGNNYGWYQQRSPGSAPVTVIYYNDNRPSNIPSRFSGSTSGSTSTLTITGVQADDEAIYYCGSWDSNTDSGIFGAGTTLTVL
modifications: mouse constant regions
B2: #22: chicken-mouse chimeric anti-FSTL1 antibody clone; variable regions SEQ ID NO: 819 (light), 821 (heavy) (antibody, V domains shown)
VH: AVTLDESGGGLQTPGGALSLVCKASGFTFSSNGMAWVRQAPGKGLELVARINSSGSYTNYGAAVKGRATISRDNGQSTVRLQLNNLRAEDTGTYYCAKGASGYGAYPGNIDAWGHGTEVIVSS
VL: ASTQPSSVSANPGETVKITCSGGSGSYGWFQQKSPGSAPVTVIYWDDRRPSDIPSRFSGSKSGSIHTLTITGVQADDEAVYLCGNAVRSGTGYVGVFGAGTTLTVL
modifications: mouse constant regions
B3: #33: chicken-mouse chimeric anti-FSTL1 antibody clone; variable regions SEQ ID NO: 823 (light), 825 (heavy) (antibody, V domains shown)
VH: AVTLDESGGGLQTPGGGLSLVCKASGFTFSSFNMNWVRQAPGKGLEYVAEISGTGSSTYYGSAVKGRATISRDNGQSTVRLQLNNLRAEDTATYFCARGDGAYSIDAWGHGTEVIVSS
VL: ASTQPSSVSANPGETVEITCSGDSSYYGWFQQKSPGSAPVTVIYDNTNRPSDIPSRFSGSKSGSTATLTITGVRAEDEAVYYCGGYDSSTYDGIFGAGTTLTVL
modifications: mouse constant regions

tested on: human FSTL1 deletion mutants; experiment: Epitope mapping ELISA (Example 3); type: binding; details: further fragmented deletion mutants

Row | Molecule | putative epitope, amino acid positions of human FSTL1, narrowed down
1 | B1 | 148-162
2 | B2 | 193 to 216
3 | B3 | 48 to 100

Source: US20180021429A1, “ANTICANCER AGENTS OR ANTIMETASTATIC AGENTS USING FSTL1 AND COMBINATION DRUG THEREOF” (PHARMA FOODS INTERNATIONAL CO., LTD., priority 2015, published 2018)
